# Screening data, single-dose tests

Chains of the proteins cited; added tags and fusions are not shown. Residues count along the entry.
UniProt P9WNZ1, whole entry: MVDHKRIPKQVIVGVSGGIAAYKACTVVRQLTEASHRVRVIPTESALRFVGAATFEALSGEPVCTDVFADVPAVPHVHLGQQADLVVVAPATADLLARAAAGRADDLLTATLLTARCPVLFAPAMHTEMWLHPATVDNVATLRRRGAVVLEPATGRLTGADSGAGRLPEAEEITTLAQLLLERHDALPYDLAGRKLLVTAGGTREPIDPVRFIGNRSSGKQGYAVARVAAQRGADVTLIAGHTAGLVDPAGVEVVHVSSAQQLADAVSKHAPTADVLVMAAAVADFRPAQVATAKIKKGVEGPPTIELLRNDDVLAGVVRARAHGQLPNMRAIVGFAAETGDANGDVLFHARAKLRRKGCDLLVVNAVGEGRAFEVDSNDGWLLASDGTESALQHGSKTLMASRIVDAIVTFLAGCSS
UniProt I6X8D2, whole entry: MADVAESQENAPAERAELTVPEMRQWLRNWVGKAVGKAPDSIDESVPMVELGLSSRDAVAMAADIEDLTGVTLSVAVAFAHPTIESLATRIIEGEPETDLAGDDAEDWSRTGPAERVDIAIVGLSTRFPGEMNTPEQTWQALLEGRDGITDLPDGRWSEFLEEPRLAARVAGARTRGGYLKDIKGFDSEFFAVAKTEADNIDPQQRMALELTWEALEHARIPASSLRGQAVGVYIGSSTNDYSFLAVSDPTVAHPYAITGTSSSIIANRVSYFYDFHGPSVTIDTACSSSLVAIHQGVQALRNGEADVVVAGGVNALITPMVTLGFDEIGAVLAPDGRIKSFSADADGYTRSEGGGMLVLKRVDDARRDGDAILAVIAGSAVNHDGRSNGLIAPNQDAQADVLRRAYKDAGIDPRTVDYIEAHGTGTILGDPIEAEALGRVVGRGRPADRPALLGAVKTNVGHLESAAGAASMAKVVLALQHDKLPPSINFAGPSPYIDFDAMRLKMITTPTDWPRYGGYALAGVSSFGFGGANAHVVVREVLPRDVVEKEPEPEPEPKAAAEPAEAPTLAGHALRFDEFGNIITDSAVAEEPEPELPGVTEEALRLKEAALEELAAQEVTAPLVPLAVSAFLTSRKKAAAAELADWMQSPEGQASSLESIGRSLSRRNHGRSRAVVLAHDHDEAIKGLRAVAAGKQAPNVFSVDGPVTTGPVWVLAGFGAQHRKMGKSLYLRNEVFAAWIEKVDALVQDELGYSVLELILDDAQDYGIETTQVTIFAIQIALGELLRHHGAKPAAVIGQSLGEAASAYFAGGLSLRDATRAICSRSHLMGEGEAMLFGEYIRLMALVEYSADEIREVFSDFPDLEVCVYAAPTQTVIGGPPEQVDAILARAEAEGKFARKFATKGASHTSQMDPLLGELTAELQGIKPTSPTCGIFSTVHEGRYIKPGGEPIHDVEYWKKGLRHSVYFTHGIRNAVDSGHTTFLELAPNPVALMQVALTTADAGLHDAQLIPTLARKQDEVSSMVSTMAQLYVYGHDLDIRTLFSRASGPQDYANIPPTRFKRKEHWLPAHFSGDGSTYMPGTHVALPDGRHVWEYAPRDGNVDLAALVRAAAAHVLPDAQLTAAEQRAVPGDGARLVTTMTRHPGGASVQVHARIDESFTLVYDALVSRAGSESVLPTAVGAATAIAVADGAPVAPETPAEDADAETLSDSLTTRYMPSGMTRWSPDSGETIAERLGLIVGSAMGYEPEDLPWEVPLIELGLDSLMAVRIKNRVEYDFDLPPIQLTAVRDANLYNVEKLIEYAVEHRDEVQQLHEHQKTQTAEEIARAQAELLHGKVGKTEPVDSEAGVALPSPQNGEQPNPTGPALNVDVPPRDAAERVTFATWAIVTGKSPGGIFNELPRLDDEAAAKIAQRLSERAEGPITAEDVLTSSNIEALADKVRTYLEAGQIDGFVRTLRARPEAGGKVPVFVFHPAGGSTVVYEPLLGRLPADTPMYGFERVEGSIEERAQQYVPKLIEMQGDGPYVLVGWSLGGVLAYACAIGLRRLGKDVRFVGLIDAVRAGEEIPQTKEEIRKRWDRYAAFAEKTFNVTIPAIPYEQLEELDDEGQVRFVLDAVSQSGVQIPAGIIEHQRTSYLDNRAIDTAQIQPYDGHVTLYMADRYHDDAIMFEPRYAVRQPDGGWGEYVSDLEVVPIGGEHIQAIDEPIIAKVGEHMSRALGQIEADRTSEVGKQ
UniProt P9WFT3, whole entry: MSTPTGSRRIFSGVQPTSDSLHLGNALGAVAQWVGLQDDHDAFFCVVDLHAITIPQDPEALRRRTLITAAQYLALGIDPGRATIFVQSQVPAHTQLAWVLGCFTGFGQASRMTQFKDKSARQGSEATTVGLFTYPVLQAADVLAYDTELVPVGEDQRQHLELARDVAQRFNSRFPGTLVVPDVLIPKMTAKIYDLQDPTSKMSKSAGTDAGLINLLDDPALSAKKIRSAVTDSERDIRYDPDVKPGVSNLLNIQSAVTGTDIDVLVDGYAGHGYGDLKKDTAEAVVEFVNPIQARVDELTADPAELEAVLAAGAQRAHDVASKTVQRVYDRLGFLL
UniProt A4I591, 1-473: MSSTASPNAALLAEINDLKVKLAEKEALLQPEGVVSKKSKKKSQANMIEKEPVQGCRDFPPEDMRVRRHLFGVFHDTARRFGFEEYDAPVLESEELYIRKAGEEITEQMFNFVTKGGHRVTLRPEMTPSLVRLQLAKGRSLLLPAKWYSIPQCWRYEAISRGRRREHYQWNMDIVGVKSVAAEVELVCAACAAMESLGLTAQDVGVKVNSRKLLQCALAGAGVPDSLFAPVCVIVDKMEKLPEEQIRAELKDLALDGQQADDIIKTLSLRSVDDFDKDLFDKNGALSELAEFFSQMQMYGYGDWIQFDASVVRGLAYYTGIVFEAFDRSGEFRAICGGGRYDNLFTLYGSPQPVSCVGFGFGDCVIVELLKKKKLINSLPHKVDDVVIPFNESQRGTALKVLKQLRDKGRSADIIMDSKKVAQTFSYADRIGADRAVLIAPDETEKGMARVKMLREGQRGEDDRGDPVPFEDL

Values are the deposited “Percent Effect”, in %.
How 0% and 100% were set is not recorded. Most values in the screen are low, and negative values occur.
Compounds were drawn at random from those tested, without regard to their results.
Two or more numbers in one place are separate tests of the same structure; such repeats can differ widely.
A dash means the value is not listed here; it may have been measured.

CoaBC: 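Coenzyme A biosynthesis protein CoaBC, Mycobacterium tuberculosis (UniProt P9WNZ1). Enzyme assay of CoaBC with a phosphate dye (Biomol Green) read at 650 nm. Concentration: 30 µM. Direction is inferred from only a few compounds that gave an IC50; most scored high, so higher reads as stronger inhibition. Most strong results did not repeat in a second test. Of about 67,000 compounds tested this way, about 40 (0.06%) reached 50% or more in at least one test.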
Pks13 thioesterase: 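Enzyme assay of the thioesterase domain of polyketide synthase 13; the read-out is not stated. Target: Polyketide synthase Pks13, Mycobacterium tuberculosis (UniProt I6X8D2). Concentration: 30 µM. Higher reads as stronger inhibition (inferred from which compounds were picked for retests). About 67,000 compounds were tested under these conditions; 0.46% (about 300) showed 50% or more at least once.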
MtTrpRS: 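Enzyme assay of tryptophanyl-tRNA synthetase; the read-out is not stated. Target: Tryptophan-tRNA ligase, Mycobacterium tuberculosis (UniProt P9WFT3). Tested at 10 µM. Higher most likely means stronger inhibition; the record gives no direction and few retests gave an IC50. About 65,000 compounds were tested under these conditions; 0.098% (about 64) showed 50% or more at least once.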
LiHisRS: 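Enzyme assay of histidyl-tRNA synthetase; the read-out is not stated. Target: Histidine-tRNA ligase, Leishmania infantum (UniProt A4I591). Tested at 30 µM. Higher reads as stronger inhibition (inferred: compounds with an IC50 in retests scored well above the rest). The assay is labelled LdHisRS but filed under L. infantum. Size under these conditions: about 69,000 compounds, about 410 of them at 50% or above in at least one test.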

Compound	CoaBC	Pks13 thioesterase	MtTrpRS	LiHisRS
CC(=O)N(C)CC(=O)NCC1(c2cccc(C)c2)CCCC1	6.601	-4.887	-1.788	13.7
COc1ccc(C(C)N2CCC(CO)CC2)cc1Cl (stereo unspecified)	7.6	7.548	-9.034	12.82
O=C1CCCN1Cc1nnn2c1CN(c1cccnc1)CCC2	2.788	2.086	-	0
Cn1ccnc1C(=O)N[C@@H]1CN(Cc2ccc(F)cc2)[C@@H]2CCCO[C@@H]21	2.723	-4.986	-	6.306
CCCc1noc(CS(=O)(=O)CC(=O)NC(C)CCC)n1 (stereo unspecified)	12.7	-26.56	-0.551	11.29
O=C(O)CN1CCC2(CCc3ccccc32)CC1	3.909	9.614	6.184	22.86
Cc1nnc2n1CCN(C(=O)c1cc(C)n(-c3cccnc3)c1C)C2	0.6519	-12.66	-9.605	6.14
c1cc(CN2C[C@@H]3OCCN(CC4CCCO4)[C@@H]3C2)co1 (stereo partly specified)	4.065	-23.14	3.666	4.202
CCC1CCCN(Cc2nc(N)c3ccccc3n2)C1 (stereo unspecified)	9.34	-23.92	-7.837	18.35
Cc1nc(N2CCCC2)nc2c1CCN(C(=O)CN(C)C)CC2	-28.96	-24.17	-4.581	15.79
O=c1[nH]c(CCN2CCN(CC(F)(F)F)CC2)nc2ccccc12	7.269	-8.558	1.349	16.67
CC(C)C(C(=O)O)c1cccc(Cl)c1 (stereo unspecified)	-5.774	-0.07453	0.7389	15.5
O=C(C1COc2ccccc2C1)N(CCO)Cc1ccccc1 (stereo unspecified)	3.419	-	-3.64	10.26
CCn1cc(CN(C)S(=O)(=O)c2cnn(C)c2)cn1	-10.62	-5.551	-2.073	8.621
c1ncn(CC2CCCN(Cc3cn4ccsc4n3)C2)n1 (stereo unspecified)	8.421	-20.6	27.41	12.04
CCSc1cc(C(=O)NC2CCN(C(=O)c3ccncc3)CC2)ccn1	-3.053	0.9157	2.418	23.08
COCc1ccc(C(=O)N2CCC(c3nccn3CC3CC3)CC2)o1	5.911	5.849	-0.5072	13.6
CCC(O)Cn1nc(-c2ccc(C(=O)O)cc2)cc1-c1ccc(F)cc1 (stereo unspecified)	-10.9	11.71	-2.415	8.392
Cc1cc(CNC2(c3ccccc3)CCCCC2)on1	-1.786	-10.97	-0.3096	8.333
CN1C(=O)CC(c2cnn(C)c2)C12CCN(C(=O)c1ccnnc1)CC2 (stereo unspecified)	0.6085	-2.295	-1.91	10.09
C=Cn1ncc(CN2C[C@@H]3CCCN3C[C@@H]2CCSC)c1C	1.211	-1.076	-	2.062
Cc1cc(C)nc(N2CCN(Cc3cc4n(n3)CCNC4)CC2)n1	-2.733	-17.32	0	31.75
Cc1ccc(NC(=O)c2cc3c(=O)n(C)c(=O)n(C)c3nc2C)cc1Cl	-8.009	-16.17	-2.738	-1.639
COc1ncccc1CNC(=O)NC(C)Cn1cccn1 (stereo unspecified)	0.7833	-9.964	-3.397	17.24
CCCn1nnnc1CN(CC)CC1COc2ccccc2O1 (stereo unspecified)	-2.893	-8.108	-5.034	3.54
Cc1ccsc1CNc1cc(N2CCCC2CO)ncn1 (stereo unspecified)	4.439	-20.85	-1.657	16.22
Cc1cc(CNC(=O)CN2CCN(C(=O)OC(C)(C)C)CC2)ccc1F	4.634	-50.67	0.7524	4.8
O=C(C1CCOCC1)N1CCc2onc(COc3cccnc3)c2C1	1.25	5.889	-1.564	-6
CN(C)C(=O)NCc1cc(=O)n2c(n1)CN(Cc1ccoc1)CCC2	-6.3	5.934	-1.59	5.319
CNC(=O)C1CN(C)CCN(C(=O)CCn2nnc3ccccc32)C1 (stereo unspecified)	3.699	18.66	2.375	7.042
COCCO[C@@H]1C[C@H]2CN(C(=O)c3ccc(C)nc3)CCN2C1	2.157	0.7179	2.204	7.547
O=C(Nc1cccnc1)C1=Cc2ccccc2OC1	-26.79	4.529	-2.039	25
Cc1ccc(NCc2cncc3c2CCN(Cc2ccccn2)C3)nn1	7.765	-14.29	-1.161	22.94
CN(Cc1ccc([S+](C)[O-])cc1)c1ccc(Br)cn1 (stereo unspecified)	1.463	-9.295	0.7524	4.8
CSc1nnc(CC2CCN(C(=O)Cc3ccncc3)CC2)n1C	7.6	-28.4	-2.415	10.26
Cc1cccc(C2CCCCCN2Cc2cn(C)nc2C)c1 (stereo unspecified)	2.286	-5.786	0.2935	-29.21
Cc1noc(C)c1-c1cccc(C2CN(S(=O)(=O)N(C)C)CCO2)n1 (stereo unspecified)	-0.7398	-1.209	-9.103	8.451
O=C(Cc1ccsc1)N1CCC(Cn2cc(CCO)nn2)CC1	3.308	-12.79	0.9804	20.51
NC(=O)C1CN(C(=O)Nc2cc(Cl)cc(Cl)c2)CCO1 (stereo unspecified)	6.667	-17.49	-0.9046	11.43
CC(C)OCc1nn(CC2CC2)c2c1CN(Cc1ccco1)CC2	5.598	-22.93	-5.74	23.3
CCOCCC(=O)N(C)c1ccc(F)c(Cl)c1	6.865	-8.643	-0.1638	4.225
CN1CCCC[C@@H]2[C@H]1[C@@H](c1ccccc1)CCN2C(=O)c1ccncc1	-3.676	37.23	-	28.12
COCCc1noc(CN2CCOC(CN(C)C)C2)n1 (stereo unspecified)	-1.531	-1.431	-0.7674	12.73
CN1CCN(c2ncc3c(=O)n(Cc4ccco4)ccc3n2)CC1	14.81 and 23.47	-27.25	-1.651	12.5
CCc1nc(C)c([C@H]2CN(C)C[C@@H]2C(=O)Nc2ccc(OC)cc2)[nH]1	-21.11	-10.04	-4.257	17.31
COCCN(C)C[C@@H]1CN(Cc2ccnc3ccccc23)C[C@@H]1CO	9.159	-3.858	0.7651	25.3
COc1ccc(CNCC2CCN(CC(C)O)CC2)c2ccccc12 (stereo unspecified)	4.404	-5.429	2.004	40.43
CCCc1cc(C(=O)NC(c2ccccc2)c2n[nH]c(C)n2)[nH]n1 (stereo unspecified)	10.54	-10.51	-7.282	10.96
O=c1cc2c(nn1CN1CCOCC1)CCC2	3.096	-21.23	1.809	13.59
COc1ccccc1Nc1nc2c(C)nn(C)c2c(=O)n1C	-1.722	-13.93	3.441	7.08
O=S(=O)(c1cc(F)cc(F)c1)N1CCC(Oc2ccc(Cl)cn2)CC1	-6.554	-30.71	-4.483	15.65
CN(C)CC(=O)N1CCc2sc(C(=O)N3CCN(C)CC3)cc21	5.817	-8.978	-	15.84
CC(=O)N1CCC(NC2(Cc3cc(CC(C)C)on3)COC2)CC1	0.9677	-20.54	3.253	11.11
O=C1NCC(C(=O)Nc2ccc(=O)n(Cc3ccccc3Cl)c2)N1 (stereo unspecified)	5.949	14.06	5.167	92.77
O=C(c1ccc(-c2nc[nH]n2)cc1)N1CCOC(C(F)(F)F)C1 (stereo unspecified)	-	-12.3	16.31	15.83
CNC(=O)C(C)(C)N1CCC[C@H]1C(=O)NCC(C)C	5.192	-19.11	2.334	19.44
Fc1ccc(N2CCCN(c3ccc(Cn4ccnc4)cn3)CC2)cc1	-2.589	-35.32	2.271	31.76
O=C(c1ccoc1)N(Cc1ccncc1)C1CC1	1.574	-5.641	-3.888	16.3
Cn1cc(C[C@H]2[C@H](O)CCN2Cc2ccc(F)cc2)cn1	1.25	-15.76	3.909	14
Cc1oc(C)c(C(=O)N2CCCN(Cc3cscn3)CC2)c1C	7.436	-14.9	-1.173	8
CN(C)C(=O)CS(=O)(=O)Cc1cc(Cl)c2c(c1)OCCCO2	4.841	-5.586	-3.996	13.64
Cc1cc(O)c(OCC(=O)Nc2nccs2)cn1	-0.1266	-7.372	1.085	0
Cn1cc(-c2nnc3sc(C4CC4)nn23)cn1	-2.309	-11.69	-1.608	19.57
CNS(=O)(=O)CC(=O)NC(C)Cc1ccc(Br)cc1 (stereo unspecified)	-2.133	-22.72	-0.552	13.56

Repeated from the top, 7 entries:

| Compound | CoaBC | Pks13 thioesterase | MtTrpRS | LiHisRS |
|---|---|---|---|---|
| `CC(=O)N(C)CC(=O)NCC1(c2cccc(C)c2)CCCC1` | 6.601 | -4.887 | -1.788 | 13.7 |
| `COc1ccc(C(C)N2CCC(CO)CC2)cc1Cl` (stereo unspecified) | 7.6 | 7.548 | -9.034 | 12.82 |
| `O=C1CCCN1Cc1nnn2c1CN(c1cccnc1)CCC2` | 2.788 | 2.086 | - | 0 |
| `Cn1ccnc1C(=O)N[C@@H]1CN(Cc2ccc(F)cc2)[C@@H]2CCCO[C@@H]21` | 2.723 | -4.986 | - | 6.306 |
| `CCCc1noc(CS(=O)(=O)CC(=O)NC(C)CCC)n1` (stereo unspecified) | 12.7 | -26.56 | -0.551 | 11.29 |
| `O=C(O)CN1CCC2(CCc3ccccc32)CC1` | 3.909 | 9.614 | 6.184 | 22.86 |
| `Cc1nnc2n1CCN(C(=O)c1cc(C)n(-c3cccnc3)c1C)C2` | 0.6519 | -12.66 | -9.605 | 6.14 |

Source: ChEMBL document CHEMBL3988442, “University of Dundee, Small-Polar-MMV Screening Library” (2021).